# Assay results reported in PubChem BioAssay (EPA / NIEHS).
# Sequences of proteins named here, by UniProt entry; tags and fusion partners are left off. A change or cut given only in a name is not applied to a line headed by its entry.
# UniProt P15204: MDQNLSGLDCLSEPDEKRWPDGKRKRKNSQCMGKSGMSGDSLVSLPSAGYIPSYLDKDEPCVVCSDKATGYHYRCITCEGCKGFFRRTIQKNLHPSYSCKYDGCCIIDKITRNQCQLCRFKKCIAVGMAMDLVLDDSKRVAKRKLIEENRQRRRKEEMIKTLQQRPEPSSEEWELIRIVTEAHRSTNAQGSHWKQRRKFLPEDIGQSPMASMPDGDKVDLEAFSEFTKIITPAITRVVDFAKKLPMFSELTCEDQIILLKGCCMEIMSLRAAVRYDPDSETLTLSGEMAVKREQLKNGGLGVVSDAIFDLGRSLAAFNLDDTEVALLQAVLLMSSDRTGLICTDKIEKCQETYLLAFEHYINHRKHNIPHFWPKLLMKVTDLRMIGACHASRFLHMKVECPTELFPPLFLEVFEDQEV
# UniProt P10827: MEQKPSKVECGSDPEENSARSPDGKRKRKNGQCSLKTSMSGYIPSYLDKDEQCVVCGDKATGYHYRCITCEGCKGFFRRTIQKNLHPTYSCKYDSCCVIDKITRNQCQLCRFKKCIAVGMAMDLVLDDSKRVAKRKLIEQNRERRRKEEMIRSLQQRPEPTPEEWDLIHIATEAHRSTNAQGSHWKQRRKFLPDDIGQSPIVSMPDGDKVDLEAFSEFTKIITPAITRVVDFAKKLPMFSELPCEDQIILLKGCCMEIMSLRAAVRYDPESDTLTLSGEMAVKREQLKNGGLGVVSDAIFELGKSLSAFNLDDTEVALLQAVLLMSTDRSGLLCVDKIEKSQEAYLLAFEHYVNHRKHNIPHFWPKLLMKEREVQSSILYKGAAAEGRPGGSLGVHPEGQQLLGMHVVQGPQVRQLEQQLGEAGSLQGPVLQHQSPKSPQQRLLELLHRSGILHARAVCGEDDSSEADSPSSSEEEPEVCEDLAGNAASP
# UniProt P10828: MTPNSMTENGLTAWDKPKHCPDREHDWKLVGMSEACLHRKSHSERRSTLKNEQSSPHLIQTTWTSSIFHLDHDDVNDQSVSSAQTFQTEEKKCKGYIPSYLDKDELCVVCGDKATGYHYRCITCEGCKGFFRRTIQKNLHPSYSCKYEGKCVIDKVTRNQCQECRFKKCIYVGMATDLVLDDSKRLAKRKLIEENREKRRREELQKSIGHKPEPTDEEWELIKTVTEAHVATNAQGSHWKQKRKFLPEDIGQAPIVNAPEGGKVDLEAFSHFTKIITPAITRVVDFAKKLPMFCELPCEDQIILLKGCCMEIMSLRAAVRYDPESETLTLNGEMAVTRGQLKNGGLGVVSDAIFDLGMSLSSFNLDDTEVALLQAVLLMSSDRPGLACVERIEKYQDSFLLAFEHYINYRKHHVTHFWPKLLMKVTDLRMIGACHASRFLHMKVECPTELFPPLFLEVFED
# This list was built around the results that the source calls inconclusive (neither active nor inactive); the mix of calls is not that of the screen. For some assays here: A potency beside an inconclusive call is a rough fit, not a confirmed value. More than one record can exist for a structure, and the calls need not agree. Calls of active or inactive are those of the source. How the source made its calls: active means hit-call score of the fitted dose curve at least 0.9, where 1 is the maximum; inconclusive means response in the unintended direction; inactive means score below 0.9.
# Legend:
# [1] = system: Sodium/Iodide Symporter (NIS), SLC5A5 (gene 6528); experiment: CPHEA_Stoker_NIS_Inhibition_RAIU: CPHEA's Radioactive Iodide Uptake (RAIU) Assay for Sodium/Iodide Symporter (NIS) Inhibition, Stoker and Laws Labs (AID 2283841)
# Summary of the method: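 Iodide uptake through human NIS is measured in an engineered HEK293T line. Cells take up 125I (329pM final) for 2 hours at room temperature alongside chemicals at 0.001–100uM. Retained radioactivity is counted, and the signal is expressed against DMSO controls.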
# [2] = system: turtle Thyroid Hormone Receptor, alpha (TRa), gene 101949057; experiment: ATG_trTRa_XSP2: Attagene TRANS-FACTORIAL Multi-Species (XSP1) HepG2 Assay for turtle Thyroid Hormone Receptor, alpha (TRa) (AID 2283834);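 further: hits raise reporter mRNA over the DMSO baseline so AC50 marks activators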
# Summary of the method: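 Gain-of-signal reporter transcription measured in transiently transfected HepG2 at 24 h post-dose. Fluorescent RT-PCR products were resolved by capillary electrophoresis and compared with DMSO vehicle.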
# [3] = target: frog Thyroid hormone Receptor alpha (TRa), thra-a (gene 397942) (UniProt P15204); experiment: ATG_frTRa_XSP2: Attagene TRANS-FACTORIAL Multi-Species (XSP2) HepG2 Assay for frog Thyroid hormone Receptor alpha (TRa) (AID 2283839);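 on AC50: AC50 reflects induction of frog TRa-driven reporter mRNA above DMSO baseline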
# Summary of the method: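 Frog thyroid receptor alpha was tested as an exogenous NR-Gal4 fusion in transiently transfected HepG2 cells. After 24 h chemical treatment, reporter mRNA induction was quantified by RT-PCR and capillary electrophoresis, with gain-of-signal analysed relative to DMSO.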
# [4] = target: human Thyroid hormone Receptor alpha (TRa), THRA (gene 7067) (UniProt P10827); experiment: ATG_hTRa_XSP2: Attagene TRANS-FACTORIAL Multi-Species (XSP2) HepG2 Assay for human Thyroid hormone Receptor alpha (TRa) (AID 2283838)
# Summary of the method: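 HepG2 cells transiently transfected with multiplexed GAL4-UAS reporter units and exogenous NR-GAL4 chimeras; 24 h chemical exposure with 3 nM 6-alpha-fluorotestosterone and 1.5 nM norgestrel present. Reporter mRNA measured by RT-PCR, FAM labelling, HpaI digestion, capillary electrophoresis; gain-of-signal versus DMSO.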
# [5] = target: human Thyroid hormone Receptor beta (TRb), THRB (gene 7068) (UniProt P10828); experiment: ATG_hTRb_XSP2: Attagene TRANS-FACTORIAL Multi-Species (XSP2) HepG2 Assay for human Thyroid hormone Receptor beta (TRb) (AID 2283840);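 further: actives raise reporter mRNA so potency reflects agonist-like gain of signal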
# Summary of the method: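 In this cell-based multiplex, HepG2 liver cells carrying transfected GAL4-UAS reporter constructs are exposed to chemical for 24 hours, then reporter transcripts are measured by RT-PCR with capillary electrophoresis, scored as gain of signal against DMSO.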
# [6] = TOX21_PR_LUC_Followup_Agonist_viability: Viability Assessment in the Tox21 HEK293 Progesterone Receptor (PR) Agonism Luciferase Follow-Up Assay (AID 2283941);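 further: loss of signal means cytotoxicity so actives lower viability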
# Summary of the method: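 Luminescent ATP quantitation (CellTiter-Glo) serves as the read-out; a drop flags cytotoxic compounds. Cells are HEK293-PR-A-luc grown in 10% charcoal-stripped FBS, plated 3,000/well, and exposed to compound for 16 h.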
# [7] = TOX21_PR_LUC_Followup_Antagonist_viability: Viability Assessment in the Tox21 HEK293 Progesterone Receptor (PR) Antagonism Luciferase Follow-Up Assay (AID 2283940)
# Summary of the method: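 Cellular ATP, measured with luciferase-coupled CellTiter-Glo, served as the viability endpoint after HEK293-PR-A-luc cells were exposed to test compounds for 16 h at 37C.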
compound,measurement,setting,value
O=[N+]([O-])C(Br)(CO)CO,AC50,[1],inconclusive: 3.76 nM
COc1cccc(C(=O)NN(C(=O)c2cc(C)cc(C)c2)C(C)(C)C)c1C,AC50,[1],active: 15800 nM
OC(c1ccc(Cl)cc1)(c1ccc(Cl)cc1)C(Cl)(Cl)Cl,AC50,[1],active: 30200 nM
CC(C)(C)c1ccc(CSc2cnn(C(C)(C)C)c(=O)c2Cl)cc1,AC50,[2],active: 53.4 nM
same,AC50,[3],active: 15.1 nM
COP(=S)(OC)Oc1ccc(SC)c(C)c1,outcome,[3],inactive
CCNS(=O)(=O)C(F)(F)C(F)(F)C(F)(F)C(F)(F)C(F)(F)C(F)(F)C(F)(F)C(F)(F)F,AC50,[1],inconclusive: 0.134 nM
CCCCOC(=O)c1ccccc1C(=O)OCCCC,outcome,[4],inactive
same,outcome,[3],inactive
CC(C)COC(=O)c1ccccc1C(=O)OCC(C)C,AC50,[1],inconclusive: 1.52 nM
O=C1C2CC=CCC2C(=O)N1SC(Cl)(Cl)Cl (stereo not drawn),AC50,[1],active: 36000 nM
CC(=O)c1cc2c(cc1C)C(C)(C)C(C)CC2(C)C (stereo not drawn),AC50,[2],inconclusive: 169 nM
same,AC50,[4],inconclusive: 100000 nM
same,AC50,[3],inconclusive: 100000 nM
same,outcome,[5],inactive
same,outcome,[6],inactive
CC(C)NC(=O)N1CC(=O)N(c2cc(Cl)cc(Cl)c2)C1=O,AC50,[5],inconclusive: 8.37 nM
N#Cc1cc(Br)c(O)c(Br)c1,AC50,[1],inconclusive: 7.6 nM
Clc1ccc(C2(Cn3cncn3)CC(Br)CO2)c(Cl)c1 (stereo not drawn),AC50,[2],active: 26900 nM
same,outcome,[1],inactive
same,outcome,[7],inactive
Cc1ccc(-c2c(Cl)nc(C#N)n2S(=O)(=O)N(C)C)cc1,outcome,[1],inactive
CO/C=C(/C(=O)OC)c1ccccc1COc1cccc(C(F)(F)F)n1,outcome,[1],inactive

# A portion of the results above:
compound,measurement,setting,value
CC(=O)c1cc2c(cc1C)C(C)(C)C(C)CC2(C)C (stereo not drawn),outcome,[5],inactive
same,outcome,[6],inactive
